Data published in PubChem BioAssay (Tox21).
The shares of active, inactive and inconclusive entries below differ from those in the screen. For some assays here: Where the call is inconclusive, the potency comes from a doubtful curve fit. Calls of active or inactive are those of the source. Unless noted, the call rests on the fitted dose curve.

By UniProt entry, the sequences of proteins in these tests, tags left out.
UniProt P28223, whole entry, looked up: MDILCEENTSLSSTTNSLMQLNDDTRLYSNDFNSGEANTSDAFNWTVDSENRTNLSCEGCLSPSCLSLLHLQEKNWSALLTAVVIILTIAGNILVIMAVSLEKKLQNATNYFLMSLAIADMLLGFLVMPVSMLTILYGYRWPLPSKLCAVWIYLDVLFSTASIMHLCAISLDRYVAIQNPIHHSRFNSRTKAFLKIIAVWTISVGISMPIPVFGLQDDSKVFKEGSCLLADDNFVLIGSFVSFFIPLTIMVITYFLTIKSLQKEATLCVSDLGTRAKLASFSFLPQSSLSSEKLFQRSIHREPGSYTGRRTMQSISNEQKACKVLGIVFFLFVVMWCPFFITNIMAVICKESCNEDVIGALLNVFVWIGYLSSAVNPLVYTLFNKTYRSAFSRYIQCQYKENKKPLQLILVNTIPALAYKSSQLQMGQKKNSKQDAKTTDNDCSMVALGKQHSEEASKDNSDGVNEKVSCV
UniProt P14416, whole entry, looked up: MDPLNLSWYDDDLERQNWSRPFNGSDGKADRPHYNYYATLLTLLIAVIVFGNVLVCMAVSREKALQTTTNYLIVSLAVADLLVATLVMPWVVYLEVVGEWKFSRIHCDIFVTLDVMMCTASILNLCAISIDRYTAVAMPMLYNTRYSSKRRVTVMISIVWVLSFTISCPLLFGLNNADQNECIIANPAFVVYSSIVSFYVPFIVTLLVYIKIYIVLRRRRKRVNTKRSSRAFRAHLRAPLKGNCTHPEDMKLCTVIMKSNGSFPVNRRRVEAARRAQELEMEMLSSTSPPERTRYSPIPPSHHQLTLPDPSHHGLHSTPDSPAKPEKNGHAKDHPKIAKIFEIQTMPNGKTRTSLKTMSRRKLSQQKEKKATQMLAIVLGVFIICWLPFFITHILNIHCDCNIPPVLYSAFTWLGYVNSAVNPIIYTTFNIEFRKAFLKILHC

Legend:
[1] = p53 small molecule agonists, cell-based qHTS assay: qHTS cell viability counter screen (AID 1963581); conditions: p53RE-bla HCT-116 viability, ATP luminescence, 16 h; series mostly up to 66 µM; further: nearly all actives have a fitted effect of over 45% in size; further: potency means the concentration at half of the fitted maximal effect
Summary of the method: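 Following 5 h attachment, HCT-116 p53RE-bla cells took up compound for 16 h at 37 C; the reporter was read with B/G FRET substrate (2 h RT), and viability then via CellTiter-Glo ATP luminescence.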

[2] = p53 small molecule agonists, cell-based qHTS assay (AID 1963582; active means well fitted activation curve with a large enough effect in the signal ratio in the repeat runs, not every such curve was filed as active; inconclusive means weak or mixed curves; the % refers to the signal ratio; further: potency means the concentration at half of the fitted maximal effect; on activation: on the % scale 0 is the no-effect control and ±100 the full control effect); conditions: HCT-116 p53RE-bla reporter, beta-lactamase FRET ratio, 16 h; activation: at 66 µM (top of the series) unless noted
Summary of the method: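 In this cell-based concentration-response screen, a p53 response element drives beta-lactamase; cells received DMSO-borne compounds after 5 h culture and were incubated a further 16 h before FRET substrate development.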

[3] = biological target: Beta-2 adrenergic receptor (Homo sapiens) (UniProt P07550); experiment: Adrenergic beta2 receptor (ADRB2) small molecule antagonists, cell-based qHTS assay (AID 1963592); conditions: CHO-ADRB2 cells, isoproterenol-stimulated cAMP HTRF ratio, 0.5 h; activity change, negative = inhibition: at 92.4 µM (top of the series) unless noted; further: nearly all actives have a fitted effect of over 50% in size; further: potency means the concentration at half of the fitted maximal effect; on activity change, negative = inhibition: on the % scale 0 is the no-effect control and ±100 the full control effect
Summary of the method: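 Cells (CHO, stable ADRB2 overexpression) incubated 18-20hr at 37C; compounds added from DMSO; agonist mix (1nM isoproterenol, 100uM IBMX, 25uM Ro-20-1724) added; 0.5hr RT; d2-cAMP and anti-cAMP-cryptate added; 1hr RT; 665/615 nm read.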

[4] = biological target: Beta-2 adrenergic receptor (Homo sapiens) (UniProt P07550); experiment: Adrenergic beta2 receptor (ADRB2) small molecule agonists, cell-based qHTS assay (AID 1963593); conditions: CHO-ADRB2 cells, cAMP HTRF, 30 min; further: potency means the concentration at half of the fitted maximal effect;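 on activation: CHO cells stably overexpressing human ADRB2; on the % scale 0 is the no-effect control and ±100 the full control effect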
Summary of the method: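 CHO cells stably over-expressing ADRB2 were plated overnight at 37C, then dosed with compounds plus a stimulation mix containing 100uM IBMX and 25uM Ro-20-1724 for 0.5hr at room temperature. cAMP was measured by HTRF competition, 1hr.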

[5] = biological target: 5-hydroxytryptamine receptor 2A (Homo sapiens) (UniProt P28223); experiment: 5-hydroxytryptamine receptor 2A (HTR2A) small molecule antagonists, cell-based qHTS assay (AID 1963586); conditions: HTR2A-CHO cells, DOI-induced calcium flux, fluorescence; series mostly up to 61.5 µM; further: nearly all actives have a fitted effect of over 45% in size; further: potency means the concentration at half of the fitted maximal effect
Summary of the method: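 Antagonist-mode intracellular calcium assay: DOI (4 nM) added after 5 min compound pre-incubation at room temperature to dye-loaded HTR2A-CHO cells. Fluorescence followed for 3 min, sampled every second.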

[6] = biological target: 5-hydroxytryptamine receptor 2A (Homo sapiens) (UniProt P28223); experiment: 5-hydroxytryptamine receptor 2A (HTR2A) small molecule agonists, cell-based qHTS assay (AID 1963587); conditions: HTR2A-CHO cells, calcium flux fluorescence, agonist mode; activation: at 76.8 µM (top of the series); further: potency means the concentration at half of the fitted maximal effect; nearly all actives have a fitted effect of over 30% in size
Summary of the method: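 Kinetic calcium-flux fluorescence (2 min, 1 sec intervals) after compound addition in agonist mode. HTR2A-CHO cells were cultured 18 h, then dye-loaded 1 h at 37 C.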

[7] = p53 small molecule agonists, cell-based qHTS assay with rat liver microsomes: qHTS cell viability counter screen (AID 1963580); conditions: p53RE-bla HCT-116 + rat microsomes, ATP viability, 16 h; series mostly up to 66 µM; further: potency means the concentration at half of the fitted maximal effect; nearly all actives have a fitted effect of over 45% in size
Summary of the method: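 HCT-116 p53RE-bla, 4,000 cells/well, 5 h pre-incubation; cpd + rat liver microsomes 0.5 mg/mL + NADPH 0.5 mg/mL (final); 16 h, 37 C; CellTiter-Glo, 30 min RT; luminescence.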

[8] = biological target: D(2) dopamine receptor (Homo sapiens) (UniProt P14416); experiment: Dopamine D2 receptor (DRD2) small molecule agonists, cell-based qHTS assay (AID 1963594); conditions: HEK293-DRD2 cAMP HTRF, agonist mode, 30 min; activation: at 92.4 µM (top of the series) unless noted; further: potency means the concentration at half of the fitted maximal effect; nearly all actives have a fitted effect of over 35% in size
Summary of the method: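 cAMP accumulation in DRD2-HEK293 cells measured by HTRF after 1 h detection; compounds added 10 min before NKH477 (200nM […]) forskolin-analogue stimulation, 30 min at room temperature, with Ro20-1724 present at 0.1 mM final.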

[9] = cAMP Responsive Elements (CRE) small molecule agonists, cell-based qHTS assay (AID 1963590); conditions: CRE-bla HEK293T, beta-lactamase FRET ratio, 3 h; activation: at 92.4 µM (top of the series) unless noted; further: potency means the concentration at half of the fitted maximal effect
Summary of the method: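 A CRE-responsive beta-lactamase reporter in HEK 293T cells was used. Treatment ran 3 h at 37 C; detection used LiveBLAzer B/G FRET substrate for 2 h at room temperature.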

[10] = cAMP Responsive Elements (CRE) small molecule antagonists, cell-based qHTS assay (AID 1963591; active means well fitted inhibition curve with a large enough effect in the signal ratio in the repeat runs, not every such curve was filed as active; inconclusive means weak or mixed curves, or effect the other way; the % refers to the signal ratio; further: on the % scale 0 is the no-effect control and ±100 the full control effect); conditions: CRE-bla HEK293T, beta-lactamase FRET ratio; activity change, negative = inhibition: at 92.4 µM (top of the series) unless noted
Summary of the method: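 HEK293T cells carrying a CRE-driven beta-lactamase reporter receive compound and NKH477 (0.25 uM final) for 3 h. Fluorescence from LiveBLAzer B/G FRET substrate is read after 2 h at room temperature.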

[11] = activation: at 92.4 µM (top of the series) unless noted

Compound: COc1ccc(OC)c(C=O)c1
- Potency [1]: inconclusive: 51.3 µM [rising, single point]
- Potency [2]: inconclusive: 45.8 µM [activator, single point]
- Potency [3]: inactive
- activation [4, 11]: inconclusive: 11.9%

Compound: c1cc2c(c(N3CCNCC3)c1)OCCO2
- Potency [1]: inactive
- Potency [5]: active: 0.729 µM
- Potency [6]: active: 0.0601 µM
- Potency [3]: active: 15 µM
- Potency [4, 11]: inconclusive: 13.3 µM [inhibitor, partial curve]

Compound: C[N+](C)(C)CC(=O)O
- Potency [7]: inconclusive: 51.3 µM [rising, single point]
- activation [4, 11]: inconclusive: 0.43% [at 42.5 µM]
- activation ([4]; at 92.4 µM (top of the series)): inactive: -59.2%
- Potency [8]: inconclusive: 0.0969 µM [rising, full curve, poor fit]

Compound: Cc1ccccc1C(=O)Nc1cccc(OC(C)C)c1
- Potency [1]: inconclusive: 12.9 µM [cytotoxic, partial curve, poor fit]
- Potency [2]: inconclusive: 51.3 µM [rising, single point]
- Potency [5]: inactive
- Potency [9]: inconclusive: 61.1 µM [rising, partial curve, poor fit]
- activity change, negative = inhibition [10]: inconclusive: 18.4%
- Potency [4, 11]: inactive

Compound: CC(C)C1(C)N=C(c2ncccc2C(=O)O)NC1=O (centres undefined)
- Potency [1]: inactive
- Potency [2]: inactive
- Potency [9]: inactive
- Potency [4, 11]: inactive

Compound: O=C(N[C@H]1CN2CCC1CC2)c1cc2ccoc2cn1
- Potency [1]: inactive
- Potency [2]: inactive
- Potency [5]: inconclusive: 37.5 µM [inhibitor, partial curve, poor fit]
- Potency [6]: inconclusive: 30.9 µM [activator, partial curve]
- activity change, negative = inhibition [10]: inconclusive: -22.2%
- activation [4, 11]: inconclusive: 2.09%
